Results deposited as PubChem BioAssay AID1259425 (University of Nebraska Medical Center, 2018).
In all, the deposit lists about 14,000 reagents; this is a random part of them. Further read-outs or replicates are left out here. Not given: the time to read-out.

Screen: 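Find knockdowns that reproduce the gene expression pattern seen when KSR1 is lost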 (primary screen)
Cell system: HCT116 human colon cancer cells
Reagent: siRNA pool against human genes, 50 nM siRNA
Detection: 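mRNA of six signature genes measured together by branched-DNA assay after 50 nM siRNA pool, blank removed, divided by geometric mean of two housekeeping genes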
Scale: BNIP3L mRNA: higher = more BNIP3L transcript after knockdown; NDRG1 mRNA: higher = more NDRG1 transcript after knockdown

DBR1 (debranching RNA lariats 1)
- BNIP3L mRNA, set 1: 0.169
- NDRG1 mRNA, set 1: 0.227

INHBC (inhibin subunit beta C)
- BNIP3L mRNA, set 1: 0.0801
- NDRG1 mRNA, set 1: 0.236

PDCD1 (programmed cell death 1)
- BNIP3L mRNA, set 1: 0.233
- NDRG1 mRNA, set 1: 0.527

ANAPC1 (anaphase promoting complex subunit 1)
- BNIP3L mRNA, set 1: 0.091
- NDRG1 mRNA, set 1: 0.132

SZT2 (SZT2 subunit of KICSTOR complex)
- BNIP3L mRNA, set 1: 0.143
- NDRG1 mRNA, set 1: 0.375

An excerpt from above, reduced to “BNIP3L mRNA, set 1”.
INHBC (inhibin subunit beta C) = 0.0801
PDCD1 (programmed cell death 1) = 0.233

More results follow:
PAG1
- BNIP3L mRNA, set 1: 0.157
- NDRG1 mRNA, set 1: 0.0311

GFRA1 (GDNF family receptor alpha 1)
- BNIP3L mRNA, set 1: 0.102
- NDRG1 mRNA, set 1: 0.136

MDN1 (midasin AAA ATPase 1)
- BNIP3L mRNA, set 1: 0.167
- NDRG1 mRNA, set 1: 0.186

RIDA (reactive intermediate imine deaminase A)
- BNIP3L mRNA, set 1: 0.143
- NDRG1 mRNA, set 1: 0.163

MROH9 (maestro heat like repeat family member 9)
- BNIP3L mRNA, set 1: 0.0954
- NDRG1 mRNA, set 1: 0.216

CLDN22 (claudin 22)
- BNIP3L mRNA, set 1: 0.0946
- NDRG1 mRNA, set 1: 0.16

HNRNPDL (heterogeneous nuclear ribonucleoprotein D like)
- BNIP3L mRNA, set 1: 0.141
- NDRG1 mRNA, set 1: 0.412
